Taken from: PubChem BioAssay AID1259405 (NCATS, 2018)

Assay: 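Mouse-designed siRNAs used to find CHO productivity engineering targets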 (primary screen)
System: Chinese hamster CHO-K1 ovary cells with stable secreted eGFP expression
Reagents: single siRNA against mouse genes, 0.8 pmol siRNA per well (2 µl of 400 nM stock)
Duration: 3 days
Detection: 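Per-well intracellular GFP measured by laser scanning cytometry, plus viability from ATP luminescence, each relative to plate median of non-targeting control wells, in %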
Direction: GFP, % of control: higher = more GFP per well, higher productivity; viability (ATP), % of control: higher = more viable cells (more ATP)
Hit rule: 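Called active when intracellular GFP, relative to negative control, is at or above 120%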
The deposit covers about 50,000 reagents; this is a part drawn at random. About 4,000 of them (8%) count as active. 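Mouse siRNA library applied to hamster cells; one well for each siRNA.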 The numbers tell different reagents against one gene apart.

Depletion of Slc35a1 #1 came out at: GFP, % of control 121; viability (ATP), % of control 131; active. For Slc35a1 #2 the deposit lists GFP, % of control 69.2; viability (ATP), % of control 46; inactive. Depletion of Slc35a1 #3 gave: GFP, % of control 62.1; viability (ATP), % of control 65.2; inactive. Knock-down of Or8g51 #1 resulted in: GFP, % of control 122; viability (ATP), % of control 77.8; active. After knock-down of Or8g51 #2 the results were GFP, % of control 83.1; viability (ATP), % of control 71.5; inactive. With knock-down of Or8g51 #3, the screen gave GFP, % of control 149; viability (ATP), % of control 82.5; active.

Against Rhox11 #1, the entry reads GFP, % of control 73.3; viability (ATP), % of control 53.5; inactive. Against Rhox11 #2 the deposit lists GFP, % of control 127; viability (ATP), % of control 110; active. Against Rhox11 #3 the deposit lists GFP, % of control 23.1; viability (ATP), % of control 37.8; inactive. Knock-down of Zfp811 #1 came out at: GFP, % of control 68.2; viability (ATP), % of control 44.7; inactive. Zfp811 #2 gave GFP, % of control 27.3; viability (ATP), % of control 43.1; inactive. Silencing of Zfp811 #3 came out at: GFP, % of control 84.9; viability (ATP), % of control 109; inactive.

Fam131b #1 gave GFP, % of control 52.7; viability (ATP), % of control 48.7; inactive. Against Fam131b #2, the values are GFP, % of control 67.3; viability (ATP), % of control 76.2; inactive. Silencing of Fam131b #3 gave: GFP, % of control 118; viability (ATP), % of control 118; inactive. With knock-down of Nlrp4b #1, the record shows GFP, % of control 59.6; viability (ATP), % of control 67.5; inactive. Knock-down of Nlrp4b #2 gave: GFP, % of control 76.5; viability (ATP), % of control 97.9; inactive. Against Nlrp4b #3 the deposit lists GFP, % of control 62.1; viability (ATP), % of control 54.7; inactive.

With knock-down of D2hgdh #1, the record shows GFP, % of control 54.1; viability (ATP), % of control 79.3; inactive. After knock-down of D2hgdh #2, the screen gave GFP, % of control 55.9; viability (ATP), % of control 51.9; inactive. D2hgdh #3 gave GFP, % of control 92.6; viability (ATP), % of control 87.2; inactive. Against Upk1b #1, the entry reads GFP, % of control 49.7; viability (ATP), % of control 48.5; inactive. Upk1b #2 showed GFP, % of control 62.2; viability (ATP), % of control 91.3; inactive. Knock-down of Upk1b #3 gave: GFP, % of control 97.5; viability (ATP), % of control 109; inactive.

After knock-down of E2f6 #1 the results were GFP, % of control 77.9; viability (ATP), % of control 81.5; inactive. Knock-down of E2f6 #2 resulted in: GFP, % of control 69; viability (ATP), % of control 84.9; inactive.

Quoted from above, 5 entries:
Zfp811 #1: GFP, % of control = 68.2; viability (ATP), % of control = 44.7; outcome = inactive
Zfp811 #2: GFP, % of control = 27.3; viability (ATP), % of control = 43.1; outcome = inactive
Zfp811 #3: GFP, % of control = 84.9; viability (ATP), % of control = 109; outcome = inactive
Fam131b #1: GFP, % of control = 52.7; viability (ATP), % of control = 48.7; outcome = inactive
Fam131b #2: GFP, % of control = 67.3; viability (ATP), % of control = 76.2; outcome = inactive

Next results:
With knock-down of Or6c68 #1 the results were GFP, % of control 198; viability (ATP), % of control 101; active. After knock-down of Or6c68 #2 the results were GFP, % of control 80.7; viability (ATP), % of control 77; inactive. Or6c68 #3 showed GFP, % of control 75.6; viability (ATP), % of control 84; inactive. After knock-down of Mtmr9 #1 the results were GFP, % of control 108; viability (ATP), % of control 78.7; inactive. Mtmr9 #2 gave GFP, % of control 49.9; viability (ATP), % of control 52.2; inactive. Knock-down of Mtmr9 #3 gave: GFP, % of control 59.9; viability (ATP), % of control 88.9; inactive.

With knock-down of Il9 #1, the screen gave GFP, % of control 84.3; viability (ATP), % of control 102; inactive. For Il9 #2, the values are GFP, % of control 74.3; viability (ATP), % of control 53.5; inactive. Il9 #3 scored GFP, % of control 98.7; viability (ATP), % of control 55.1; inactive. After knock-down of Hmga1 #1, the screen gave GFP, % of control 104; viability (ATP), % of control 64.6; inactive. Silencing of Hmga1 #2 gave: GFP, % of control 78.5; viability (ATP), % of control 93.3; inactive. After knock-down of Hmga1 #3 the results were GFP, % of control 44.4; viability (ATP), % of control 65.7; inactive.

Usp20 #1 scored GFP, % of control 96.9; viability (ATP), % of control 106; inactive. Knock-down of Usp20 #2 gave: GFP, % of control 93.2; viability (ATP), % of control 70.1; inactive. Depletion of Usp20 #3 gave: GFP, % of control 72.6; viability (ATP), % of control 92.8; inactive.
